Test results reported in PubChem BioAssay AID220 (DTP/NCI, 2004).
The list does not hold the whole screen: it is rich in T/C values a quarter to a half above the control, in often repeated tests (any T/C) and in doses without a T/C. Further doses and runs are listed elsewhere. T/C: endpoint of the treated group in % of that of the vehicle group. Schedules are NCI's codes, read here as Q, the interval in days (D) or hours (H), X, the number of doses. Some values lie below zero, which means that the treated tumours became smaller. Some T/C values carry the count of animals alive at the toxicity check (mostly the fifth day); where none is given, no animal had died by that day. Some doses have a count of surviving animals in place of a T/C: the source files T/C as zero there, which appears to mark a toxic dose or a test without result, not a measured value. Counts of survivors are from the toxicity check (mostly the fifth day) where no day follows; animals may have died later. Some doses were run more than once; their values stand side by side, smallest first.

Tested on: CD8F1 mice, subcutaneous mammary adenocarcinoma, T/C%
Assay: NCI In Vivo Anticancer Drug Screen. Data for tumor model Mammary Adenocarcinoma CD8F1 (subcutaneous) in CD8F1
Details: higher T/C = larger tumour
Procedure: The antitumor activity of compounds was measured in mice bearing transplantable tumors. Survival or tumor size were measured and the results are expressed as the measurement made in the treated group (T) divided by the measurement made in the vehicle treated control group (C). The tumor model used in this assay is Mammary Adenocarcinoma CD8F1 (subcutaneous) in CD8F1

[1] = T/C endpoint: median tumor weight change, dose: 500.0 mg/kg/injection, schedule: Q01DX001 (ip), vehicle: Klucel (hydroxypropylcellulose) (HPC)
[2] = T/C endpoint: median tumor weight change, dose: 1000.0 mg/kg/injection, schedule: Q01DX001 (ip), vehicle: Klucel (hydroxypropylcellulose) (HPC)

## CCCCc1ccc2nc(NC(=O)OC)[nH]c2c1
T/C endpoint: mean tumor weight, dose: 25.0 mg/kg/injection, schedule: Q07DX006 (ip), vehicle: saline with Tween-80, evaluated on day 37
  T/C: 148 % of control
T/C endpoint: mean tumor weight, dose: 50.0 mg/kg/injection, schedule: Q07DX006 (ip), vehicle: saline with Tween-80, evaluated on day 37
  T/C: 137 % of control
T/C endpoint: median tumor weight (est.), dose: 400.0 mg/kg/injection, schedule: Q07DX005 (ip), vehicle: saline with Tween-80
  survivor count: 0 of 10 on day 30

## c1cc(-c2cc3ccc(C4=NCCN4)cc3[nH]2)ccc1C1=NCCN1
T/C endpoint: median tumor weight (est.), dose: 6.25 mg/kg/injection, schedule: Q07DX005 (ip), vehicle: saline
  survivor count: 6 of 10 on day 30
T/C endpoint: median tumor weight (est.), dose: 12.5 mg/kg/injection, schedule: Q07DX005 (ip), vehicle: saline, evaluated on day 30
  T/C: 149 % of control
T/C endpoint: median tumor weight (est.), dose: 50.0 mg/kg/injection, schedule: Q07DX005 (ip), vehicle: suspension in saline
  survivor count: 3 of 10 on day 30
T/C endpoint: median tumor weight (est.), dose: 100.0 mg/kg/injection, schedule: Q07DX005 (ip), vehicle: suspension in saline
  survivor count: 0 of 10 on day 30
T/C endpoint: median tumor weight (est.), dose: 200.0 mg/kg/injection, schedule: Q07DX005 (ip), vehicle: suspension in saline
  survivor count: 0 of 10 on day 30
T/C endpoint: median tumor weight change, dose: 31.0 mg/kg/injection, schedule: Q01DX001 (ip), vehicle: suspension in saline, evaluated on day 28
  T/C: 136 % of control
T/C endpoint: median tumor weight change, dose: 125.0 mg/kg/injection, schedule: Q01DX001 (ip), vehicle: suspension in saline
  survivor count: 1 of 10 on day 28
T/C endpoint: median tumor weight change, dose: 250.0 mg/kg/injection, schedule: Q01DX001 (ip), vehicle: suspension in saline
  survivor count: 0 of 10 on day 28

## Clc1ccc(C2SC=Cc3ccccc32)cc1 (configuration not stated)
[1]
  survivor count: 0 of 10 on day 28
[2]
  survivor count: 0 of 10 on day 28, 0 of 10 on day 36, 0 of 10 on day 39
T/C endpoint: median tumor weight change, dose: 2000.0 mg/kg/injection, schedule: Q01DX001 (ip), vehicle: Klucel (hydroxypropylcellulose) (HPC)
  survivor count: 1 of 10 on day 39

## Nc1ccc2c(c1)CN1C(=O)c3ccccc3C1=N2
T/C endpoint: median tumor weight change, dose: 250.0 mg/kg/injection, schedule: Q01DX001 (ip), vehicle: saline with Tween-80, evaluated on day 22
  T/C: 99 % of control
T/C endpoint: median tumor weight change, dose: 250.0 mg/kg/injection, schedule: Q01DX001 (ip), vehicle: saline with Tween-80, evaluated on day 24
  T/C: 96 % of control
T/C endpoint: median tumor weight change, dose: 250.0 mg/kg/injection, schedule: Q01DX001 (ip), vehicle: saline with Tween-80, evaluated on day 27
  T/C: 97 % of control
T/C endpoint: median tumor weight change, dose: 250.0 mg/kg/injection, schedule: Q01DX001 (ip), vehicle: saline with Tween-80, evaluated on day 28
  T/C: 139 % of control
T/C endpoint: median tumor weight change, dose: 250.0 mg/kg/injection, schedule: Q01DX001 (ip), vehicle: saline with Tween-80, evaluated on day 29
  T/C: 88 % of control
T/C endpoint: median tumor weight change, dose: 250.0 mg/kg/injection, schedule: Q01DX001 (ip), vehicle: saline with Tween-80, evaluated on day 36
  T/C: 16 % of control [9 of 10 alive on day 36]
T/C endpoint: median tumor weight change, dose: 500.0 mg/kg/injection, schedule: Q01DX001 (ip), vehicle: saline with Tween-80, evaluated on day 22
  T/C: 104 % of control
T/C endpoint: median tumor weight change, dose: 500.0 mg/kg/injection, schedule: Q01DX001 (ip), vehicle: saline with Tween-80, evaluated on day 24
  T/C: 61 % of control
T/C endpoint: median tumor weight change, dose: 500.0 mg/kg/injection, schedule: Q01DX001 (ip), vehicle: saline with Tween-80, evaluated on day 27
  T/C: 50 % of control
T/C endpoint: median tumor weight change, dose: 500.0 mg/kg/injection, schedule: Q01DX001 (ip), vehicle: saline with Tween-80, evaluated on day 28
  T/C: 89 % of control
T/C endpoint: median tumor weight change, dose: 500.0 mg/kg/injection, schedule: Q01DX001 (ip), vehicle: saline with Tween-80, evaluated on day 29
  T/C: 59 % of control [9 of 10 alive on day 29]
T/C endpoint: median tumor weight change, dose: 500.0 mg/kg/injection, schedule: Q01DX001 (ip), vehicle: saline with Tween-80, evaluated on day 36
  T/C: 34 % of control
T/C endpoint: median tumor weight change, dose: 1000.0 mg/kg/injection, schedule: Q01DX001 (ip), vehicle: saline with Tween-80, evaluated on day 22
  T/C: 58 % of control
T/C endpoint: median tumor weight change, dose: 1000.0 mg/kg/injection, schedule: Q01DX001 (ip), vehicle: saline with Tween-80, evaluated on day 24
  T/C: 67 % of control
T/C endpoint: median tumor weight change, dose: 1000.0 mg/kg/injection, schedule: Q01DX001 (ip), vehicle: saline with Tween-80, evaluated on day 27
  T/C: 12 % of control [9 of 10 alive on day 27]
T/C endpoint: median tumor weight change, dose: 1000.0 mg/kg/injection, schedule: Q01DX001 (ip), vehicle: saline with Tween-80, evaluated on day 28
  T/C: 55 % of control
T/C endpoint: median tumor weight change, dose: 1000.0 mg/kg/injection, schedule: Q01DX001 (ip), vehicle: saline with Tween-80, evaluated on day 29
  T/C: 39 % of control
T/C endpoint: median tumor weight change, dose: 1000.0 mg/kg/injection, schedule: Q01DX001 (ip), vehicle: saline with Tween-80, evaluated on day 36
  T/C: -7 % of control
T/C endpoint: median tumor weight change, dose: 2000.0 mg/kg/injection, schedule: Q01DX001 (ip), vehicle: saline with Tween-80
  survivor count: 1 of 10 on day 22, 1 of 10 on day 27, 4 of 10 on day 28, 4 of 10 on day 29

## Nc1ccc(S(=O)(=O)Nc2cnc3c(Cl)cccc3n2)cc1
T/C endpoint: median tumor weight change, dose: 125.0 mg/kg/injection, schedule: Q01DX001 (ip), vehicle: DMSO, evaluated on day 25
  T/C: 133 % of control
T/C endpoint: median tumor weight change, dose: 250.0 mg/kg/injection, schedule: Q01DX001 (ip), vehicle: DMSO, evaluated on day 29
  T/C: 141 % of control
T/C endpoint: median tumor weight change, dose: 500.0 mg/kg/injection, schedule: Q01DX001 (ip), vehicle: DMSO, evaluated on day 29
  T/C: 139 % of control
T/C endpoint: median tumor weight change, dose: 1000.0 mg/kg/injection, schedule: Q01DX001 (ip), vehicle: DMSO
  survivor count: 2 of 10 on day 25
T/C endpoint: median tumor weight change, dose: 2000.0 mg/kg/injection, schedule: Q01DX001 (ip), vehicle: DMSO
  survivor count: 0 of 10 on day 25 and 0 of 10 on day 29

## CNc1n[n+](-c2ccccc2)no1
T/C endpoint: mean tumor weight, dose: 6.25 mg/kg/injection, schedule: Q07DX006 (ip), vehicle: saline, evaluated on day 41
  T/C: 133 % of control
T/C endpoint: median tumor weight (est.), dose: 3.12 mg/kg/injection, schedule: Q07DX005 (ip), vehicle: saline, evaluated on day 30
  T/C: 135 % of control [9 of 10 alive]

## CCN1/C(=C/C=C/C=C\C=C\c2sc3ccc4ccccc4c3[n+]2CC)Sc2ccc3ccccc3c21
T/C endpoint: median tumor weight change, dose: 200.0 mg/kg/injection, schedule: Q01DX001 (ip), vehicle: saline with Tween-80
  survivor count: 2 of 10 on day 29

## CC1CCC(NC(=O)N(CCCl)N=O)CC1 (configuration not stated)
T/C endpoint: median tumor weight (est.), dose: 32.0 mg/kg/injection, schedule: Q07DX005 (ip), vehicle: Klucel (hydroxypropylcellulose) (HPC)
  survivor count: 4 of 10 on day 30
T/C endpoint: median tumor weight (est.), dose: 64.0 mg/kg/injection, schedule: Q07DX005 (ip), vehicle: Klucel (hydroxypropylcellulose) (HPC)
  survivor count: 1 of 10 on day 30
T/C endpoint: median tumor weight change, dose: 106.1 mg/kg/injection, schedule: Q01DX001 (ip), vehicle: Klucel (hydroxypropylcellulose) (HPC)
  survivor count: 0 of 10 on day 32
T/C endpoint: median tumor weight change, dose: 128.0 mg/kg/injection, schedule: Q01DX001 (ip), vehicle: Klucel (hydroxypropylcellulose) (HPC)
  survivor count: 0 of 10 on day 32

## ClCCCN1CCN(CCCl)CC1
T/C endpoint: median tumor weight change, dose: 66.7 mg/kg/injection, schedule: Q01DX001 (ip), vehicle: saline
  survivor count: 0 of 10 on day 32
T/C endpoint: median tumor weight change, dose: 80.0 mg/kg/injection, schedule: Q01DX001 (ip), vehicle: saline
  survivor count: 0 of 10 on day 24 and 0 of 10 on day 25
T/C endpoint: median tumor weight change, dose: 111.0 mg/kg/injection, schedule: Q01DX001 (ip), vehicle: saline
  survivor count: 0 of 10 on day 32
T/C endpoint: median tumor weight change, dose: 160.0 mg/kg/injection, schedule: Q01DX001 (ip), vehicle: saline
  survivor count: 0 of 10 on day 25

## Cc1ccc2nc(-c3ccc4nc(-c5ccc(N=Nc6ccc(-c7nc8ccc(-c9nc%10ccc(C)c(S(=O)(=O)O)c%10s9)cc8s7)cc6)cc5)sc4c3)sc2c1S(=O)(=O)O
T/C endpoint: median tumor weight change, dose: 500.0 mg/kg/injection, schedule: Q01DX001 (ip), vehicle: suspension in saline
  survivor count: 6 of 10 on day 36
T/C endpoint: median tumor weight change, dose: 1000.0 mg/kg/injection, schedule: Q01DX001 (ip), vehicle: suspension in saline
  survivor count: 0 of 10 on day 36
T/C endpoint: median tumor weight change, dose: 2000.0 mg/kg/injection, schedule: Q01DX001 (ip), vehicle: suspension in saline
  survivor count: 3 of 10 on day 36

## CCCCN(CCCC)C(Cl)=Nc1ccccc1
T/C endpoint: median tumor weight change, dose: 62.5 mg/kg/injection, schedule: Q01DX001 (ip), vehicle: Klucel (hydroxypropylcellulose) (HPC), evaluated on day 29
  T/C: 125 % of control
T/C endpoint: median tumor weight change, dose: 62.5 mg/kg/injection, schedule: Q01DX001 (ip), vehicle: Klucel (hydroxypropylcellulose) (HPC), evaluated on day 32
  T/C: 149 % of control
T/C endpoint: median tumor weight change, dose: 250.0 mg/kg/injection, schedule: Q01DX001 (ip), vehicle: Klucel (hydroxypropylcellulose) (HPC)
  survivor count: 3 of 10 on day 32 and 6 of 10 on day 29
[1]
  survivor count: 0 of 10 on day 29 and 0 of 10 on day 32
[2]
  survivor count: 0 of 10 on day 32 and 2 of 10 on day 29
